Assay results

From PubChem BioAssay record AID912 (NCATS, 2007).

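Uptake of anthrax lethal toxin into cultured cells, read by FRET (460/530 nm ratio) and reported from the 460 nm channel; the cell line is not named here.
Each compound was tested as a concentration series from about 0.0005 to 40 µM.
The number is the fitted AC50 of the 460 nm signal alone; lower values mean a more potent effect. A falling signal goes with compounds filed as inhibitors or cytotoxic, a rising one with activators or fluorescent compounds (inferred from the filed classes).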

Values are in µM.
Common to all entries: measured here: 460 nm channel.
Part of the compounds only, not a random draw; the main read-out is not listed here.
Potencies fitted to partial, single-point or poorly fitting curves are rough.
The first word of each remark tells which way the curve ran; it can be opposite to the aim of the assay.

O=C1c2ccccc2-c2onc3ccc(NCCCn4ccnc4)c1c23 read AC50 31.62 µM (falling, single point). For Cc1ccc(C)c(N2CCN(C(=O)CC3Sc4ccccc4NC3=O)CC2)c1 (stereo unspecified) the result was AC50 12.59 µM (falling, partial curve). COc1cc(C(=O)O)c([N+](=O)[O-])c(OC)c1OC read AC50 1 µM (rising, single point). Result for CC[C@H]1CN2CCc3cc(OC)c(OC)cc3[C@H]2C[C@@H]1C[C@H]1NCCc2c1[nH]c1ccc(O)cc21 was AC50 0.1259 µM (falling, full curve). Result for Cn1c2ccccc2c2c(C(=O)NCCCN3CCCC3=O)cn(C3CCCCC3)c(=O)c21 was AC50 0.1 µM (rising, full curve, poor fit). CN1Cc2sc(N)c(C#N)c2CC1(C)C read AC50 12.59 µM (rising, partial curve). For CC1CCc2c(C(=O)Oc3cccc(-n4cnnn4)c3)csc2C1 (stereo unspecified) the result was AC50 10 µM (falling, partial curve).

Result for Clc1ccc(Cl)c(SCCCN2CCNCC2)c1 was AC50 1 µM (rising, single point). With CC(C)(C)c1ccc(/C=C/C(=O)Nc2ccc3c(c2)OCCO3)cc1 the assay gave AC50 3.162 µM (falling, full curve). For Nc1ccn(-c2ccc(Cl)cc2)c(=O)c1 the result was AC50 0.1259 µM (rising, full curve, poor fit). Cn1c(=O)c(-c2cc(F)cc(F)c2)nc2cnc(Nc3ccccc3)nc21 read AC50 6.31 µM (rising, partial curve). COc1ccc(-c2nc3cnc(N4CCOCC4)nc3n(C)c2=O)cc1 read AC50 6.31 µM (rising, partial curve). Result for CCCC/C(C)=C/[C@@H](NP(=O)(c1ccccc1)c1ccccc1)c1ccccc1 was AC50 25.12 µM (falling, single point). With C=CCOC(=O)C1=C(C)OC(N)=C(C#N)C1c1c(C)nn(-c2ccccc2)c1Cl (stereo unspecified) the assay gave AC50 3.981 µM (falling, single point).

Result for C=CCN1C(=O)C2(C(C(=O)OCC)=C(N)Oc3ccccc32)c2c1c1ccccc1oc2=O (stereo unspecified) was AC50 15.85 µM (falling, partial curve). Result for COc1ccc(-n2c(=O)c(CCc3ccccc3)nc3cnc(N(C)C)nc32)cc1 was AC50 31.62 µM (rising, single point). With CCCc1cc(-c2n[nH]c(C)c2-c2ccc(C(=O)OCC)o2)c(O)cc1O the assay gave AC50 15.85 µM (falling, single point). CCN(CC)S(=O)(=O)c1cccc(-c2nnc(SCCOc3ccccc3C)o2)c1 read AC50 19.95 µM (falling, single point). COC(=O)C1=NOC2(C=C(Br)C(OC)=C(Br)C2=O)C1 (stereo unspecified) gave AC50 5.012 µM (falling, single point). O=C(OC1CCN(CCCl)CC1)C(c1ccccc1)c1ccccc1 read AC50 7.943 µM (rising, partial curve, poor fit). O=C1C2C3C=CC(CO)(O3)C2C(=O)N1c1ccccc1-c1ccccc1 (stereo unspecified) read AC50 3.981 µM (falling, full curve).

CC(=O)NCCn1c(SCC#N)nc2ccccc2c1=O gave AC50 0.631 µM (rising, full curve, poor fit). With COc1ccc(N(CC(=O)N2CCN(c3ccccc3)CC2)S(=O)(=O)c2c(C)noc2C)cc1 the assay gave AC50 3.162 µM (falling, partial curve). CCNc1ncc2nc(-c3cccs3)c(=O)n(Cc3ccc(F)cc3)c2n1 read AC50 0.1 µM (rising, full curve). For Cn1c(CCCCCN)nc2ccccc21 the result was AC50 5.012 µM (rising, single point). With Cc1ccc(S(=O)(=O)Cc2ccc(C(=O)N3CCC4(CC3)OCCO4)o2)cc1 the assay gave AC50 25.12 µM (rising, single point). COC(=O)c1[nH]c2cccc(OC)c2c1NC(=O)CCN1CCC(C(N)=O)CC1 gave AC50 0.07943 µM (rising, full curve, poor fit). With C=Cn1ccnc1P(=S)(c1ccc(N(C)C)cc1)c1nccn1C=C the assay gave AC50 0.01995 µM (rising, full curve, poor fit).

Some entries from above, unchanged:

Result for COc1ccc(-n2c(=O)c(CCc3ccccc3)nc3cnc(N(C)C)nc32)cc1 was AC50 31.62 µM (rising, single point).
Result for COc1ccc(N(CC(=O)N2CCN(c3ccccc3)CC2)S(=O)(=O)c2c(C)noc2C)cc1 was AC50 3.162 µM (falling, partial curve).
Result for C=Cn1ccnc1P(=S)(c1ccc(N(C)C)cc1)c1nccn1C=C was AC50 0.01995 µM (rising, full curve, poor fit).